Results reported in the supplement of paper PMC9233669.
Variants at the background level are over-represented here.

How the values were obtained:
[1] = tested on: biotinyl-Leu-oxazolone; assay: self-aminoacylation, catalytic enhancement (BLO) (fold over background); higher = more active; k-Seq, kA / k0A0; sequences stand for … in GGGAAUGGAUCCACAUCUACGAAUUC…UUCACUGCAGACUUGACGAAGCUG
Outline: (§1)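 Working in 50 μL HEPES/NaCl/KCl/MgCl2/CaCl2 buffer with 5% acetonitrile at pH 6.9–7.0, mutagenized RNA pools (0.43 μM; 21-nt variable region) were reacted with 2–1250 μM of each biotinyl-aminoacyl-oxazolone for 90 minutes at room temperature. Streptavidin capture followed, with quantification by triplicate qPCR and Illumina sequencing. Catalytic enhancement is reported as median kA over the uncatalyzed rate, the low-activity peak of a bimodal Gaussian fit to the data.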

[2] = tested on: biotinyl-Ile-oxazolone; assay: self-aminoacylation, catalytic enhancement (BIO) (fold over background); higher = more active; k-Seq, kA / k0A0; sequences stand for … in GGGAAUGGAUCCACAUCUACGAAUUC…UUCACUGCAGACUUGACGAAGCUG
Outline: as §1

[3] = tested on: biotinyl-Val-oxazolone; assay: self-aminoacylation, catalytic enhancement (BVO) (fold over background); higher = more active; k-Seq, kA / k0A0; sequences stand for … in GGGAAUGGAUCCACAUCUACGAAUUC…UUCACUGCAGACUUGACGAAGCUG
Outline: as §1

[4] = tested on: biotinyl-Met-oxazolone; assay: self-aminoacylation, catalytic enhancement (BMO) (fold over background); higher = more active; k-Seq, kA / k0A0; sequences stand for … in GGGAAUGGAUCCACAUCUACGAAUUC…UUCACUGCAGACUUGACGAAGCUG
Outline: as §1

Sequence	self-aminoacylation [1]	self-aminoacylation [2]	self-aminoacylation [3]	self-aminoacylation [4]
AAAUCUGCUAAUAGUCGCAAG [Fam3.1 aminoacylation ribozyme variant]	1.82			
AACUUUGCUAAUAGUCGCACG [Fam3.1 aminoacylation ribozyme variant]	2.15	2.49	2.05	1.82
AAGCUGGCUAAUAGUCGCAAG [Fam3.1 aminoacylation ribozyme variant]		1.74	1.46	1.64
AAGCUUGAUAAUAGUCGCAAG [Fam3.1 aminoacylation ribozyme variant]	1.2	1.41	1.6	1.73
AAGCUUGGUAAUAGUCGCAAG [Fam3.1 aminoacylation ribozyme variant]		1.99	1.85	
AAGGUUGCUAAUAGUCGCAGG [Fam3.1 aminoacylation ribozyme variant]	1.85	1.57	1.47	1.79
AAGUUCGCUAAUAGUCGUAAG [Fam3.1 aminoacylation ribozyme variant]	1.07	1.14	1.1	1.14
AAGUUGGCUAAUAGUCGAAAG [Fam3.1 aminoacylation ribozyme variant]	1.46	1.33	1.27	1.57
AAGUUUGCUAAGAGUCGCAUG [Fam3.1 aminoacylation ribozyme variant]		0.902	1.1	
AAGUUUGCUAAUAGUCCAAAG [Fam3.1 aminoacylation ribozyme variant]		1.21	1.18	
AAGUUUGGUAAUAGGCGCAAG [Fam3.1 aminoacylation ribozyme variant]		0.692		
AAUACCCUGGUCAUCCAGUGA [Fam2.1 aminoacylation ribozyme variant]		3.01	2.88	5.25
AAUACCCUGGUCCUCGAGUGA [Fam2.1 aminoacylation ribozyme variant]		1.86	1.89	
AAUUUUGCUAAAAGUCGCAAG [Fam3.1 aminoacylation ribozyme variant]			1.72	1.97
ACUACCCUCGUCAUCGAGUGA [Fam2.1 aminoacylation ribozyme variant]		1.85		
AGUACCCUGGUCAACGAGUGA [Fam2.1 aminoacylation ribozyme variant]		2.91		
AUACACCUAGGUCAUCGAGUG [Fam2.2 aminoacylation ribozyme variant]		1.88	1.94	
AUACACCUAGGUCAUCGGGCG [Fam2.2 aminoacylation ribozyme variant]		1.96		
AUCUCCCUGGUCAUCGAGUGA [Fam2.1 aminoacylation ribozyme variant]		4.57	4.7	
AUUAACCUAGGUCAUCUGGUG [Fam2.2 aminoacylation ribozyme variant]		1.84	1.71	

Sequence	self-aminoacylation [1]	self-aminoacylation [2]	self-aminoacylation [3]	self-aminoacylation [4]
AUUAACCUAGGUCAUGGGGUG [Fam2.2 aminoacylation ribozyme variant]		2.28	2.38	3.3
AUUAACCUGGUCCUCGAGUGA [Fam2.1 aminoacylation ribozyme variant]			1.93	
AUUACACUUGUCAUCGAGUGA [Fam2.1 aminoacylation ribozyme variant]		2.51	2.59	4.21
AUUACCAUGCUCAUCGAGUGA [Fam2.1 aminoacylation ribozyme variant]		1.62	1.71	
AUUACCCUGCUCAUCGUGUGA [Fam2.1 aminoacylation ribozyme variant]		1.36	1.64	
AUUACCCUGGACUUCGAGUGA [Fam2.1 aminoacylation ribozyme variant]		1.85		
AUUACCCUGGGCAUCGAGUGU [Fam2.1 aminoacylation ribozyme variant]	1.63	1.21	1.46	
AUUACCCUGGGGAUCGAGUGA [Fam2.1 aminoacylation ribozyme variant]		1.8	1.78	
AUUACCCUGGUCAACGAGUGU [Fam2.1 aminoacylation ribozyme variant]		1.84	1.85	
AUUACCCUGGUCAUCGAGCCA [Fam2.1 aminoacylation ribozyme variant]			1.87	
AUUACCCUGGUCAUCGCUUGA [Fam2.1 aminoacylation ribozyme variant]	1.92		1.56	
AUUACCCUGGUCCUCGUGUGA [Fam2.1 aminoacylation ribozyme variant]		1.29	1.76	
AUUAGCCUGGUCAUCGAGUGG [Fam2.1 aminoacylation ribozyme variant]		1.73	1.75	
AUUCACCAAGGUCAUAGGGUG [Fam2.2 aminoacylation ribozyme variant]		1.96	1.79	
AUUCACCUAAGUCAUUGGGUG [Fam2.2 aminoacylation ribozyme variant]			1.99	
AUUCACCUACGUCAUCAGGUG [Fam2.2 aminoacylation ribozyme variant]		1.48	1.72	2.73
AUUCACCUAGGUCAACUGGUG [Fam2.2 aminoacylation ribozyme variant]		1.68	1.83	
AUUCACCUAGGUCAUCGGGAC [Fam2.2 aminoacylation ribozyme variant]		1.85	1.55	
AUUUACCUGGUCAUCGAGUGA [Fam2.1 aminoacylation ribozyme variant]		4	4.29	
CAACUUCAAACAAUCGGGCUG [Fam1A.1 aminoacylation ribozyme variant]				1.87

Sequence	self-aminoacylation [1]	self-aminoacylation [2]	self-aminoacylation [3]	self-aminoacylation [4]
CAGUCUGCUAAUAGUCGCAAG [Fam3.1 aminoacylation ribozyme variant]	2		1.9	
CAGUUUGCUAAUAGUCGCGAG [Fam3.1 aminoacylation ribozyme variant]				1.63
CCACACUGCAAGGAAUCGGUC [Fam1B.1 aminoacylation ribozyme variant]		1.39	1.32	
CCACACUUCAUGCAAUGGGUC [Fam1B.1 aminoacylation ribozyme variant]		0.751		
CCCCACUCCAAGCAAUCGGUC [Fam1B.1 aminoacylation ribozyme variant]	1.68	1.71		1.84
CCCCACUUCGAGCAAUCGGUC [Fam1B.1 aminoacylation ribozyme variant]				1.7
CCCCUCUUCAAGCAAUCGGUC [Fam1B.1 aminoacylation ribozyme variant]		1.47	1.9	1.57
CCGCACUUCAAACAAUCGGUC [Fam1B.1 aminoacylation ribozyme variant]		1.63	1.97	1.94
CGACUUCAAACAAUCGGUCUG [Fam1A.1 aminoacylation ribozyme variant]		1.48	1.53	1.71
CUACUUCAAAUAAUCGGUCAG [Fam1A.1 aminoacylation ribozyme variant]		0.755		
CUACUUCAACGAAUCGGUCUG [Fam1A.1 aminoacylation ribozyme variant]		0.847	0.833	
CUACUUCACACAAUCGGUCUG [Fam1A.1 aminoacylation ribozyme variant]		0.775	0.811	0.685
CUGUUUCAAACAAUCGGUCUG [Fam1A.1 aminoacylation ribozyme variant]		1.24	1.2	1.45
GAGUUUGCUAAAAGUCGCAAG [Fam3.1 aminoacylation ribozyme variant]	1.6	1.37		1.96
GAGUUUGCUAAUAGUCGCAAU [Fam3.1 aminoacylation ribozyme variant]	1.57		1.93	1.64
GCACACUUCAAGCAACCGGUC [Fam1B.1 aminoacylation ribozyme variant]				1.9
GGUCACCUAGGUCAUCGGGUG [Fam2.2 aminoacylation ribozyme variant]		4.07	5.01	4.37
UAGUUUGCUAAUAGUCGCGAG [Fam3.1 aminoacylation ribozyme variant]		1.81	1.67	1.44
UUUACCCUGGUCAUCGAGGGA [Fam2.1 aminoacylation ribozyme variant]	1.84	1.85		1.86
